Earlier results in patent publication US12624037B2, “Method of treating agitation, aggressive behavior, and impulse control disorder” (INTRA-CELLULAR THERAPIES, INC., priority 2012, dated 2026).
For at least one compound, name, drawing or mass did not settle the structure.

Tested on: Mice
Conditions: chronic administration; Berton et al., Science (2006); cited from earlier work

## CNC1=Nc2ccc(Cl)cc2C(c2ccccc2)=[N+]([O-])C1 [chlordiazepoxide]
  isolation behavior in social defeat/resident intruder model: Neither acute administration of anti-depressant medications or chronic treatment with anti-anxiety medications, like chlordiazepoxide, are similarly effective
